These are yes or no findings as the source states them, for the method shown. Binding seen in cells or lysates may run through a third protein. A yes stands for co-enrichment or nearness to the bait. Other partners may have been found.

Protein sequences, listed by entry. Tags and fused reporters are not part of them. Residues count along the entry.
UniProt P16234, residues 24-528: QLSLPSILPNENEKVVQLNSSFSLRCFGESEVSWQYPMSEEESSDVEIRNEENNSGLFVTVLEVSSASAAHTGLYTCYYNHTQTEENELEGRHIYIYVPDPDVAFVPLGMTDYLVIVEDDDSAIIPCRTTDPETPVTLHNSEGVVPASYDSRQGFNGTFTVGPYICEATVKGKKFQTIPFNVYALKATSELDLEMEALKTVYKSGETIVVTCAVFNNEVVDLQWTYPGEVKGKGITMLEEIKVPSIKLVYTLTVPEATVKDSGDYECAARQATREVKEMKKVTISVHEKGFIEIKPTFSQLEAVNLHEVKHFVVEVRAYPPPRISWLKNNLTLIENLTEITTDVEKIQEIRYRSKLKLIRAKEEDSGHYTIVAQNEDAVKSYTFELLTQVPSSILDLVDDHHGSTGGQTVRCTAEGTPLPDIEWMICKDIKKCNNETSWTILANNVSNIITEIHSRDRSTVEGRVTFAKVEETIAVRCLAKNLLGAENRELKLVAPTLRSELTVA
UniProt P01127, residues 82-190: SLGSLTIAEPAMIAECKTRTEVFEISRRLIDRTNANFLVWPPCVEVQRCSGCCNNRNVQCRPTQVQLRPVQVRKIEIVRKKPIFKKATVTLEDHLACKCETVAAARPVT

The target in this assay is PDGF alpha receptor IgG Fc-receptor extracellular domain fusion protein (UniProt P16234). Nature of the assay: SELDI mass spectrometry (ProteinChip); receptor-Fc captured on a protein-A chip.

For the substance “PDGF AB (from UniProt P04085 87-211; P01127 82-190) (ligand)”, the binding result was “binds”. Next, “PDGF-AA (from UniProt P04085 87-211) (ligand)”: “binds”; “PDGF-BB (from UniProt P01127 82-190) (ligand)”: “binds”.

For the origin of these results see patent EP1988102A1.
